These are yes or no findings as the source states them, for the method shown. Binding seen in cells or lysates may run through a third protein. Some binding calls cover weakened binding; strength is not graded here.
What was measured:
Flag-Tagged Oct4 (mouse) = Flag-Tagged Oct4 (mouse) (UniProt P20263); experiment: co-IP; NIH3T3 cells cotransfected with combinations of Oct4/Oct4 K118R, Sox2/Sox2 K247R, HA-Sumo1 and HA-Ubc9; lysed 48 h later in IP buffer (50 mM Tris-HCl pH 8.0, 150 mM NaCl, 1 mM EDTA, 1% Nonidet P-40, 10% glycerol, 50 mM N-ethylmaleimide); precipitated with anti-Oct4 or anti-Sox2 antibody overnight at 4°C and protein A/G beads; western blot with anti-Sox2 and anti-Oct4
Oct4 K118R (mouse) = Oct4 K118R (mouse) (UniProt P20263); experiment: as above

Amino acid sequences for entries named in this document (tags omitted). A change or cut given only in a name is not applied to a line headed by its entry.
UniProt P20263: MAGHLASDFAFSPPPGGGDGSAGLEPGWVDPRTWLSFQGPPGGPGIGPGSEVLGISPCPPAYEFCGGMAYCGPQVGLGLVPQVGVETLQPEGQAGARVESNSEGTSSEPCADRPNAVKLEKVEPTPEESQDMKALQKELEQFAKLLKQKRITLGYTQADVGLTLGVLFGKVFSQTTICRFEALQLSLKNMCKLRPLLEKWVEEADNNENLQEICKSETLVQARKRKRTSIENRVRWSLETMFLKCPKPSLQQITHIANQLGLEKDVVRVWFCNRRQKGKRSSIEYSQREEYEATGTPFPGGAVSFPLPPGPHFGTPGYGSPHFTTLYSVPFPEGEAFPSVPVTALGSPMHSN
UniProt P48432: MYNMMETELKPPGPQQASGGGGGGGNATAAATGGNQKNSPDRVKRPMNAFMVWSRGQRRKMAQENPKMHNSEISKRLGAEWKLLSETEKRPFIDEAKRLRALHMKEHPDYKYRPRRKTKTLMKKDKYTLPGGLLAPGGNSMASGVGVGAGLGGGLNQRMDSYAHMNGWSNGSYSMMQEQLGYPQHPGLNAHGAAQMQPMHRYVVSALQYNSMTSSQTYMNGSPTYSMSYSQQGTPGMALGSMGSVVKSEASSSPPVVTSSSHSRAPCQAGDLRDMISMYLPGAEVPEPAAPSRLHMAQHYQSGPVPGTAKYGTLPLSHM

Substance | binding (Flag-Tagged Oct4 (mouse)) | binding (Oct4 K118R (mouse))
Sox2 K247R (from UniProt P48432 1-319) | binds | –
Myc-Sox2 (from UniProt P48432 1-319) | – | binds

From PMC3382131
